# Several values for one entry are separate records, joined by “and”; a condition that tells them apart may be missing. Equal entries are not always repeated. Some of the results follow. Repeats are few or missing, and single values can be far off.
# Test system: PREPP (mouse prostate epithelium Trp53/Pten KO)
# Assay: cell viability relative to untreated (fraction); higher = less growth inhibition
# Conditions: 5 µM; 3 days
row,SMILES,cell viability
1,COc1cc(O)cc(O)c1C(=O)/C=C/c1ccccc1,0.796
2,C=C1C(=O)O[C@@H]2C[C@@]3(C)CCC[C@H](C)C3=C[C@H]12,1.04
3,CC[C@H]1OC(=O)[C@@](C)(F)C(=O)[C@H](C)[C@@H](O[C@@H]2O[C@H](C)C[C@H](N(C)C)[C@H]2O)[C@](C)(OC)C[C@@H](C)C(=O)[C@H](C)[C@H]2N(CCCCn3cc(-c4cccc(N)c4)nn3)C(=O)O[C@]12C,0.923
4,CCCCCCCCCCCCCCCC(=O)O,0.963
5,C[C@@H]1O[C@@H](O[C@H]2[C@H](Oc3cc(O)c4c(=O)cc(-c5ccc(O)cc5)oc4c3)O[C@H](CO)[C@@H](O)[C@@H]2O)[C@H](O)[C@H](O)[C@H]1O,0.943
6,C/C=C/C=C/C(=O)O,1.01
7,C[C@]12C=CC(=O)C=C1CC[C@@H]1[C@@H]2C(=O)C[C@@]2(C)[C@H]1CC[C@]2(O)C(=O)CO,0.877
8,O=C(O)/C=C/CCCCCCCO,0.773
9,CC1=C(/C=C/C(C)=C/C=C/C(C)=C\C(=O)O)C(C)(C)CCC1,1.06
10,O=C(O)C(O)c1ccccc1 (stereo not given),0.485
11,COc1cc(-c2coc3cc4c(c(OC)c3c2=O)OCO4)cc(OC)c1OC,0.993
12,C/C(=C\CNc1ncnc2nc[nH]c12)CO,0.746
13,C[C@H](CCC(=O)O)[C@H]1CC[C@H]2[C@@H]3CC[C@@H]4C[C@H](O)CC[C@]4(C)[C@H]3CC[C@]12C,0.741
14,C[C@@H](O)[C@H]1C(=O)N2C(C(=O)[O-])=C(SC3Cn4cnc[n+]4C3)[C@H](C)[C@H]12 (stereo not given in full),0.765
15,NC(=O)c1ccc[n+]([C@@H]2O[C@H](CO)[C@@H](O)[C@H]2O)c1,1.23
16,C[C@@H]1CC[C@H]2C(C)(C)[C@H]3C[C@@]12CC[C@@]3(C)O,0.968
17,O=C(O)c1ccoc1,1.1
18,CCCCC/C=C\C/C=C\C/C=C\C/C=C\CCCC(=O)O,0.703
19,Nc1nc(=O)[nH]cc1F,0.882
20,O=Cc1ccc(OC2OC(CO)C(O)C(O)C2O)cc1 (stereo not given),1.02

row,SMILES,cell viability
1,CCCCCOc1ccc(-c2ccc(-c3ccc(C(=O)N[C@H]4C[C@@H](O)[C@@H](O)NC(=O)[C@@H]5[C@@H](O)[C@@H](C)CN5C(=O)[C@H]([C@@H](C)O)NC(=O)[C@H]([C@H](O)[C@@H](O)c5ccc(O)cc5)NC(=O)[C@@H]5C[C@@H](O)CN5C(=O)[C@H]([C@@H](C)O)NC4=O)cc3)cc2)cc1,0.775
2,O=C1O[C@H]([C@H](O)CO)C([O-])=C1O.[Na+],1.04
3,NC(CO)C(=O)O (stereo not given),0.996
4,CC1(C)S[C@@H]2[C@H](NC(=O)[C@H](C(=O)O)c3ccsc3)C(=O)N2[C@H]1C(=O)O,1.01
5,CC(C)(CO)C(O)C(=O)NCCC(=O)O (stereo not given),0.808
6,COc1ccccc1O,0.78
7,COC(=O)[C@H]1[C@H]2C[C@@H]3c4[nH]c5cc(OC)ccc5c4CCN3C[C@H]2C[C@@H](OC(=O)c2cc(OC)c(OC)c(OC)c2)[C@@H]1OC,1.19 and 0.696
8,C[C@H](C[C@H](O)[C@@H](O)C(C)(C)O)C1=C2C[C@H](O)[C@H]3[C@@]4(C)CCC(=O)C(C)(C)[C@@H]4CC[C@]3(C)[C@@]2(C)CC1,1
9,C/C=C(\C)C(=O)O,1.04
10,C=C(C)C1CC=C(/C=N/O)CC1 (stereo not given),1.24
11,COc1ccc(-c2cc(=O)c3c(O)c(OC)c(O)c(OC)c3o2)cc1,0.839
12,CCCC1CC(C(=O)NC(C(C)Cl)C2OC(SC)C(O)C(O)C2O)N(C)C1 (stereo not given),1.03
13,COc1ccc2cc3[n+](cc2c1O)CCc1cc2c(cc1-3)OCO2,0.823
14,CC(C)[C@H](N)C(=O)OCCOCn1cnc2c(=O)nc(N)[nH]c21,0.908
15,c1cnc2cc3c(cc2n1)[C@@H]1CNC[C@H]3C1,0.953
16,C[N+](C)(C)CC(O)CC(=O)[O-] (stereo not given),0.809
17,OCc1ccc(O[C@@H]2O[C@H](CO)[C@@H](O)[C@H](O)[C@H]2O)cc1,0.986
18,O=C([O-])CC(O)(CC(=O)[O-])C(=O)[O-].O=C([O-])CC(O)(CC(=O)[O-])C(=O)[O-].[Bi+3].[K+].[K+].[K+],0.94
19,CC(C)C(=O)C(=O)O,1.06
20,N[C@@H](Cc1cc(I)c(Oc2cc(I)c(O)c(I)c2)c(I)c1)C(=O)O,0.903 and 1

# Sorted by formula weight (smallest number first): part of the list above.
row,SMILES,cell viability
3,NC(CO)C(=O)O (stereo not given),0.996
14,CC(C)[C@H](N)C(=O)OCCOCn1cnc2c(=O)nc(N)[nH]c21,0.908
20,N[C@@H](Cc1cc(I)c(Oc2cc(I)c(O)c(I)c2)c(I)c1)C(=O)O,0.903 and 1
